Measured values reported in patent US20050130903A1 (priority 2000, published 2005).

Test: general procedure: peptide synthesis; PS-DCC (HOBt in some examples), NMM; DIC/DMAP (General Procedure C)
Conditions: conjugation step

## Ac-ProLeuGly-MetTrpAla-Y
  conjugation yield: 70% yield
